Measured values as given in patent publication US20240350492A1, “Methods for the Prevention and Treatment of Hearing Loss” (Ting Therapeutics LLC, priority 2020, published 2024).
At least one structure is not confirmed: it was looked up by name or label, or the drawing left a doubt.

Assays:
[1] = test system: zebrafish lateral line neuromast hair cells; assay: Zebrafish lateral line neuromast assay of NMDA-evoked glutamate excitotoxicity; format: in vivo
[2] = test system: pAkt and pMAPK in mouse cochleae; assay: pAkt and pMAPK in mouse cochlear lysates after noise exposure; format: in vivo; settings: afatinib IP two days, noise one day after 1st afatinib; lysates 30 min after noise; FVB adult mice
adult FVB mice = assay: Mouse model of acute noise-induced hearing loss (ABR, DPOAE, synaptic ribbon counts); settings: 20 mg/kg/day IP; noise-exposed FVB/NJ mice

CN(C)C/C=C/C(=O)Nc1cc2c(Nc3ccc(F)c(Cl)c3)ncnc2cc1O[C@H]1CCOC1 [Afatinib]
afatinib combined with EGF ligand knockdown ([1]; EGF ligand morpholino knockdown zebrafish, 1 μM afatinib, NMDA 300 μM): no synergistic or additive effect | protection of neuromast hair cells from glutamate excitotoxicity, post-incubation ([1]; NMDA 300 uM for 50 min, then post-incubation with 1 μM Afatinib): protected from glutamate excitotoxicity | protection of neuromast hair cells from NMDA damage, pre-incubation ([1]; pre-incubation with afatinib (1M printed), 300 μM NMDA): protected the neuromast hair cells from damage | noise-induced increase of pAkt and pMAPK [2]: reduces noise-induced increase of pAkt and pMAPK | cochlear inner hair cell synaptic ribbon counts (adult FVB mice): supported the protective effect
